Reference: PMC5818423
No constants are given. Whether binding was seen depends on the method and setting. Binding seen in cells or lysates may run through a third protein. Some results given as binding are weak or reduced against the parent protein; the word gives no strength. Values belong to the binder of their own block, whether it stands above or below them.

By UniProt entry, the sequences of proteins in these tests, tags left out.
UniProt P27487: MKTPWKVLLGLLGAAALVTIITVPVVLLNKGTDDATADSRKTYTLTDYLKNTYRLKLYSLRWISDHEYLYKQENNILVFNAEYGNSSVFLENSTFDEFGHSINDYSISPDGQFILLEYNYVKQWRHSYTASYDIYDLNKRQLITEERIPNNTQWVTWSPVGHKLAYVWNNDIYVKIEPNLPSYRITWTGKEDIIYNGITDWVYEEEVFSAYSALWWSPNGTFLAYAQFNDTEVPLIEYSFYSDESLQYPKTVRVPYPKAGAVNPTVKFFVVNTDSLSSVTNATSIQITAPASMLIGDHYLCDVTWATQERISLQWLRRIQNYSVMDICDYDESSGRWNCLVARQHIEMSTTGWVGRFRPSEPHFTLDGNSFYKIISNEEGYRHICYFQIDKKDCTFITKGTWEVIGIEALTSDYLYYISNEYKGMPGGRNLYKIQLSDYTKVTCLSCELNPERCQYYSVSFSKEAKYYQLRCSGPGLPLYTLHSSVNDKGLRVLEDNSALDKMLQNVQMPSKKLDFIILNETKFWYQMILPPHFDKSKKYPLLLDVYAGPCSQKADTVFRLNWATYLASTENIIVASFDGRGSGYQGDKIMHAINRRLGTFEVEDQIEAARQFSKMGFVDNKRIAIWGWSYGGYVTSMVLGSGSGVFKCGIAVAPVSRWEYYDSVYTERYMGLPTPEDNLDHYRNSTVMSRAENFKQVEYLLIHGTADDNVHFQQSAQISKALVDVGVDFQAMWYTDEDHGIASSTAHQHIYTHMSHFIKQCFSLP

Experiments:
[1] = target: A2AR-Nluc-spacer (human adenosine A2A receptor fused to NanoLuc on the N-terminal end, with spacer) (human) (UniProt P29274); experiment: FRET or BRET; the same NanoBRET experiment between two HEK-293T cell populations with bovine ADA (0.01-10 ug/ml) added in solution; pair: soluble bovine ADA and the membrane protein on cells; only the binder purified
[2] = target: CD26-YFP (human CD26 / dipeptidyl peptidase IV fused to YFP on the C-terminal end) (human) (UniProt P27487); experiment: as above
[3] = target: A2AR-Nluc-spacer (human adenosine A2A receptor fused to NanoLuc on the N-terminal end, with spacer) (human) (UniProt P29274); experiment: FRET or BRET; NanoBRET between A2AR-Nluc-spacer HEK-293T cells and CD26-YFP HEK-293T cells, 10 min in HBSS without shaking, without or with human wild-type, Leu58Ala or Leu62Ala ADA, all at 1 ug/ml (ADA only partially purified from E. coli); 5 uM coelenterazine H
[4] = target: CD26-YFP (human CD26 / dipeptidyl peptidase IV fused to YFP on the C-terminal end) (human) (UniProt P27487); experiment: as above

binding [1]: binds
binding [2]: binds
B1: Bovine adenosine deaminase (ADA) (enzyme, UniProt P56658 1-363)
chain: MAQTPAFNKPKVELHVHLDGAIKPETILYYGRKRGIALPADTPEELQNIIGMDKPLSLPEFLAKFDYYMPAIAGCREAVKRIAYEFVEMKAKDGVVYVEVRYSPHLLANSKVEPIPWNQAEGDLTPDEVVSLVNQGLQEGERDFGVKVRSILCCMRHQPSWSSEVVELCKKYREQTVVAIDLAGDETIEGSSLFPGHVKAYAEAVKSGVHRTVHAGEVGSANVVKEAVDTLKTERLGHGYHTLEDATLYNRLRQENMHFEVCPWSSYLTGAWKPDTEHPVVRFKNDQVNYSLNTDDPLIFKSTLDTDYQMTKNEMGFTEEEFKRLNINAAKSSFLPEDEKKELLDLLYKAYGMPSPASAEQCL

binding [3]: binds
binding [4]: binds
B2: Human wild-type adenosine deaminase (ADA) (enzyme, UniProt P00813 1-363)
chain: MAQTPAFDKPKVELHVHLDGSIKPETILYYGRRRGIALPANTAEGLLNVIGMDKPLTLPDFLAKFDYYMPAIAGCREAIKRIAYEFVEMKAKEGVVYVEVRYSPHLLANSKVEPIPWNQAEGDLTPDEVVALVGQGLQEGERDFGVKARSILCCMRHQPNWSPKVVELCKKYQQQTVVAIDLAGDETIPGSSLLPGHVQAYQEAVKSGIHRTVHAGEVGSAEVVKEAVDILKTERLGHGYHTLEDQALYNRLRQENMHFEICPWSSYLTGAWKPDTEHAVIRLKNDQANYSLNTDDPLIFKSTLDTDYQMTKRDMGFTEEEFKRLNINAAKSSFLPEDEKRELLDLLYKAYGMPPSASAGQNL
